Measurements reported in PubChem BioAssay AID1259254 (NCATS, 2017).
Test: 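Finding genes that stop cells copying their DNA twice in one cycle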 (primary screen). System: human HCT116 colorectal cancer cells. Knock-down reagent: single siRNA against human genes. Time to read-out: 3 days. Measured: 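Nuclei stained with Hoechst and imaged; cell-cycle phase assigned by DNA content; G2 share scaled per plate, non-targeting siRNA 0%, GMNN siRNA 100%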. Reading the numbers: G2 robust z-score: higher = more G2 cells, more excess DNA replication. Rule for the call: 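An siRNA counts as active if its G2 robust z-score lies at least 5 MADs above the screen median; here such calls match roughly 38% of GMNN control or more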.
In all, the deposit lists about 59,000 reagents; shown is an unselected part. About 1,550 of all reagents (2.6%) were called active. 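G2 share is only a proxy for re-replication; each gene was hit by three separate siRNAs, and active genes were retested.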 The numbers tell different reagents against one gene apart. Further read-outs or replicates are left out here. No sequences are given here. Not stated in the record: the amount of reagent.

The first 2 entries as a preview:
G2 robust z-score | call | target | siRNA no.
0.134 | inactive | CSPG4P5 (GeneID 114817) | 1
-0.421 | inactive | CSPG4P5 (GeneID 114817) | 2

The listing, from the first entry:
G2 robust z-score | call | target | siRNA no.
0.134 | inactive | CSPG4P5 (GeneID 114817) | 1
-0.421 | inactive | CSPG4P5 (GeneID 114817) | 2
-0.0608 | inactive | CSPG4P5 (GeneID 114817) | 3
-0.45 | inactive | ARIH2 (GeneID 10425) | 1
-0.264 | inactive | ARIH2 (GeneID 10425) | 2
0.871 | inactive | ARIH2 (GeneID 10425) | 3
0.221 | inactive | SEC61B (GeneID 10952) | 1
1.07 | inactive | SEC61B (GeneID 10952) | 2
0.8 | inactive | SEC61B (GeneID 10952) | 3
-1.19 | inactive | C16orf82 (GeneID 162083) | 1
-0.471 | inactive | C16orf82 (GeneID 162083) | 2
0.685 | inactive | C16orf82 (GeneID 162083) | 3
0.203 | inactive | UPK3A (GeneID 7380) | 1
8.12 | active | UPK3A (GeneID 7380) | 2
2.98 | inactive | UPK3A (GeneID 7380) | 3
-1.37 | inactive | LRRC30 (GeneID 339291) | 1
0.0175 | inactive | LRRC30 (GeneID 339291) | 2
1.33 | inactive | LRRC30 (GeneID 339291) | 3
-0.973 | inactive | NAA30 (GeneID 122830) | 1
-1.1 | inactive | NAA30 (GeneID 122830) | 2
-0.733 | inactive | NAA30 (GeneID 122830) | 3
-1.03 | inactive | TMEM14C (GeneID 51522) | 1
-0.326 | inactive | TMEM14C (GeneID 51522) | 2
-0.182 | inactive | TMEM14C (GeneID 51522) | 3
3.17 | inactive | NLRP12 (GeneID 91662) | 1
0.311 | inactive | NLRP12 (GeneID 91662) | 2
2.16 | inactive | NLRP12 (GeneID 91662) | 3
-0.691 | inactive | NMI (GeneID 9111) | 1
-0.144 | inactive | NMI (GeneID 9111) | 2
0.861 | inactive | NMI (GeneID 9111) | 3
-0.0851 | inactive | CLDN6 (GeneID 9074) | 1
-1.08 | inactive | CLDN6 (GeneID 9074) | 2
0.288 | inactive | CLDN6 (GeneID 9074) | 3
0.799 | inactive | CEACAM5 (GeneID 1048) | 1
-0.707 | inactive | CEACAM5 (GeneID 1048) | 2
0.358 | inactive | CEACAM5 (GeneID 1048) | 3
-0.132 | inactive | LINC01242 (GeneID 401497) | 1
1.44 | inactive | LINC01242 (GeneID 401497) | 2
1.28 | inactive | LINC01242 (GeneID 401497) | 3
1.37 | inactive | SHBG (GeneID 6462) | 1
0.599 | inactive | SHBG (GeneID 6462) | 2
5.6 | active | SHBG (GeneID 6462) | 3
-0.492 | inactive | NTN3 (GeneID 4917) | 1
-0.534 | inactive | NTN3 (GeneID 4917) | 2
-0.0479 | inactive | NTN3 (GeneID 4917) | 3
-0.076 | inactive | SEC24C (GeneID 9632) | 1
1.13 | inactive | SEC24C (GeneID 9632) | 2
0.343 | inactive | SEC24C (GeneID 9632) | 3
1.2 | inactive | CTH (GeneID 1491) | 1
-0.323 | inactive | CTH (GeneID 1491) | 2
5.84 | active | CTH (GeneID 1491) | 3
0.066 | inactive | HYAL1 (GeneID 3373) | 1
0.384 | inactive | HYAL1 (GeneID 3373) | 2
-1.08 | inactive | HYAL1 (GeneID 3373) | 3
-0.36 | inactive | C2orf76 (GeneID 130355) | 1
1.48 | inactive | C2orf76 (GeneID 130355) | 2
0.248 | inactive | C2orf76 (GeneID 130355) | 3
-0.744 | inactive | LOC727751 (GeneID 727751) | 1
-0.96 | inactive | LOC727751 (GeneID 727751) | 2
0.369 | inactive | LOC727751 (GeneID 727751) | 3
-0.561 | inactive | FHIP2B (GeneID 64760) | 1
-0.452 | inactive | FHIP2B (GeneID 64760) | 2
3.62 | inactive | FHIP2B (GeneID 64760) | 3
3.58 | inactive | CTSC (GeneID 1075) | 1
-0.806 | inactive | CTSC (GeneID 1075) | 2
-0.701 | inactive | CTSC (GeneID 1075) | 3
-1.32 | inactive | EMC8 (GeneID 10328) | 1
1.38 | inactive | EMC8 (GeneID 10328) | 2
1.52 | inactive | EMC8 (GeneID 10328) | 3
